Measurements published in PMC1188057, “Dynamic assembly, localization and proteolysis of the Bacillus subtilis SMC complex” (BMC Cell Biology, 2005).
No constants are given. Whether binding was seen depends on the method and setting. Some entries that bind do so weakly or less than the wild type. For part of these data: Where a sequence is shown, tags or fusion partners need not be part of it.

Legend:
[1] = target: T1, ScpB (Bacillus subtilis), His-tagged, purified (Bacillus subtilis) (UniProt P35155); experiment: sucrose gradient centrifugation; 5 to 20% sucrose gradient, 165,000 x g, 15 h; 1:1 mixture of ScpA and ScpB; data not shown; both purified
T1 sequence: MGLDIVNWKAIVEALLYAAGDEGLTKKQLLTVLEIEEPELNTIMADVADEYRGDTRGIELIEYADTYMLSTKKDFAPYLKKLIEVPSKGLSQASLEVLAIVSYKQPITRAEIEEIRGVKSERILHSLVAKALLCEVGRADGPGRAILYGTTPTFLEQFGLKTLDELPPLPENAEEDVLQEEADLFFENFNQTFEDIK

[2] = target: T1, ScpB (Bacillus subtilis), His-tagged, purified (Bacillus subtilis); experiment: SEC; analytical gel filtration, Superdex 200 10/300 GL; 50 mM HEPES, 300 mM NaCl, pH 8.0; proteins incubated 30 min; ScpA and ScpB alone or mixed (1:2.5, 1:0.83, 1:10), fractions on SDS-PAGE; both purified
[3] = target: T1, ScpB (Bacillus subtilis), His-tagged, purified (Bacillus subtilis); experiment: native gel or EMSA; native gel electrophoresis of freshly purified ScpA incubated with ScpB; data not shown; both purified
[4] = target: SMC K37I (Walker A mutant), purified (Bacillus subtilis) (UniProt P51834); experiment: atomic force microscopy; SMC adsorbed on mica at about 0.1 ug/ul in 50 Hepes pH 8.0, 300 NaCl, tapping mode in solution; SMC dimers to rosette-like higher-order structures; both purified
[5] = target: SMC S1090R (C-motif mutant), purified (Bacillus subtilis) (UniProt P51834); experiment: as above
[6] = target: SMC protein (Bacillus subtilis), His-tagged, purified (Bacillus subtilis) (UniProt P51834); experiment: atomic force microscopy; diluted samples of SMC; SMC dimers to rosette-like higher-order structures; both purified

B1: ScpA (Bacillus subtilis), His-tagged, purified (protein, UniProt P35154 1-251)
chain: MEEYQVKIDTFEGPLDLLLHLINRLEIDIYDIPVAKITEQYLLYVHTMRVLELDIASEYLVMAATLLSIKSRMLLPKQEEELFEDELLEEEDPREELIEKLIEYRKYKDAAKDLKEREEERQKSFTKPPSDLSEYAKEVKQSEQKLSVTVYDMIGAFQKVLKRKKINRPMETTITRQDIPIEARMNEIVHSLKSRGTRINFMDLFPYEQKEHLVVTFLAVLELMKNQLVLIEQEHNFSDIYITGSESIHGA
With B1 the binding [1] was “binds”, the binding [2] was “binds” and the binding [3] was “binds”.

B2: SMC K37I (Walker A mutant), purified (protein, UniProt P51834 1-1186)
chain: MFLKRLDVIGFKSFAERISVDFVKGVTAVVGPNGSGISNITDAIRWVLGEQSARSLRGGKMEDIIFAGSDSRKRLNLAEVTLTLDNDDHFLPIDFHEVSVTRRVYRSGESEFLINNQPCRLKDIIDLFMDSGLGKEAFSIISQGKVEEILSSKAEDRRSIFEEAAGVLKYKTRKKKAENKLFETQDNLNRVEDILHELEGQVEPLKIQASIAKDYLEKKKELEHVEIALTAYDIEELHGKWSTLKEKVQMAKEEELAESSAISAKEAKIEDTRDKIQALDESVDELQQVLLVTSEELEKLEGRKEVLKERKKNAVQNQEQLEEAIVQFQQKETVLKEELSKQEAVFETLQAEVKQLRAQVKEKQQALSLHNENVEEKIEQLKSDYFELLNSQASIRNELQLLDDQMSQSAVTLQRLADNNEKHLQERHDISARKAACETEFARIEQEIHSQVGAYRDMQTKYEQKKRQYEKNESALYQAYQYVQQARSKKDMLETMQGDFSGFYQGVKEVLKAKERLGGIRGAVLELISTEQKYETAIEIALGASAQHVVTDDEQSARKAIQYLKQNSFGRATFLPLSVIRDRQLQSRDAETAARHSSFLGVASELVTFDPAYRSVIQNLLGTVLITEDLKGANELAKLLGHRYRIVTLEGDVVNPGGSMTGGAVKKKNNSLLGRSRELEDVTKRLAEMEEKTALLEQEVKTLKHSIQDMEKKLADLRETGEGLRLKQQDVKGQLYELQVAEKNINTHLELYDQEKSALSESDEERKVRKRKLEEELSAVSEKMKQLEEDIDRLTKQKQTQSSTKESLSNELTELKIAAAKKEQACKGEEDNLARLKKELTETELALKEAKEDLSFLTSEMSSSTSGEEKLEEAAKHKLNDKTKTIELIALRRDQRIKLQHGLDTYERELKEMKRLYKQKTTLLKDEEVKLGRMEVELDNLLQYLREEYSLSFEGAKEKYQLETDPEEARKRVKLIKLAIEELGTVNLGSIDEFERVNERYKFLSEQKEDLTEAKNTLFQVIEEMDEEMTKRFNDTFVQIRSHFDQVFRSLFGGGRAELRLTDPNDLLHSGVEIIAQPPGKKLQNLNLLSGGERALTAIALLFSILKVRPVPFCVLDEVEAALDEANVFRFAQYLKKYSSDTQFIVITHRKGTMEEADVLYGVTMQESGVSKVISVKLEETKEFVQ
With B2 the binding [4] was “binds weakly”.

B3: SMC S1090R (C-motif mutant), purified (protein, UniProt P51834 1-1186)
chain: MFLKRLDVIGFKSFAERISVDFVKGVTAVVGPNGSGKSNITDAIRWVLGEQSARSLRGGKMEDIIFAGSDSRKRLNLAEVTLTLDNDDHFLPIDFHEVSVTRRVYRSGESEFLINNQPCRLKDIIDLFMDSGLGKEAFSIISQGKVEEILSSKAEDRRSIFEEAAGVLKYKTRKKKAENKLFETQDNLNRVEDILHELEGQVEPLKIQASIAKDYLEKKKELEHVEIALTAYDIEELHGKWSTLKEKVQMAKEEELAESSAISAKEAKIEDTRDKIQALDESVDELQQVLLVTSEELEKLEGRKEVLKERKKNAVQNQEQLEEAIVQFQQKETVLKEELSKQEAVFETLQAEVKQLRAQVKEKQQALSLHNENVEEKIEQLKSDYFELLNSQASIRNELQLLDDQMSQSAVTLQRLADNNEKHLQERHDISARKAACETEFARIEQEIHSQVGAYRDMQTKYEQKKRQYEKNESALYQAYQYVQQARSKKDMLETMQGDFSGFYQGVKEVLKAKERLGGIRGAVLELISTEQKYETAIEIALGASAQHVVTDDEQSARKAIQYLKQNSFGRATFLPLSVIRDRQLQSRDAETAARHSSFLGVASELVTFDPAYRSVIQNLLGTVLITEDLKGANELAKLLGHRYRIVTLEGDVVNPGGSMTGGAVKKKNNSLLGRSRELEDVTKRLAEMEEKTALLEQEVKTLKHSIQDMEKKLADLRETGEGLRLKQQDVKGQLYELQVAEKNINTHLELYDQEKSALSESDEERKVRKRKLEEELSAVSEKMKQLEEDIDRLTKQKQTQSSTKESLSNELTELKIAAAKKEQACKGEEDNLARLKKELTETELALKEAKEDLSFLTSEMSSSTSGEEKLEEAAKHKLNDKTKTIELIALRRDQRIKLQHGLDTYERELKEMKRLYKQKTTLLKDEEVKLGRMEVELDNLLQYLREEYSLSFEGAKEKYQLETDPEEARKRVKLIKLAIEELGTVNLGSIDEFERVNERYKFLSEQKEDLTEAKNTLFQVIEEMDEEMTKRFNDTFVQIRSHFDQVFRSLFGGGRAELRLTDPNDLLHSGVEIIAQPPGKKLQNLNLLRGGERALTAIALLFSILKVRPVPFCVLDEVEAALDEANVFRFAQYLKKYSSDTQFIVITHRKGTMEEADVLYGVTMQESGVSKVISVKLEETKEFVQ
With B3 the binding [5] was “no binding”.

B4: SMC protein (Bacillus subtilis), His-tagged, purified (natural protein, UniProt P51834 1-1186, looked up)
chain: MFLKRLDVIGFKSFAERISVDFVKGVTAVVGPNGSGKSNITDAIRWVLGEQSARSLRGGKMEDIIFAGSDSRKRLNLAEVTLTLDNDDHFLPIDFHEVSVTRRVYRSGESEFLINNQPCRLKDIIDLFMDSGLGKEAFSIISQGKVEEILSSKAEDRRSIFEEAAGVLKYKTRKKKAENKLFETQDNLNRVEDILHELEGQVEPLKIQASIAKDYLEKKKELEHVEIALTAYDIEELHGKWSTLKEKVQMAKEEELAESSAISAKEAKIEDTRDKIQALDESVDELQQVLLVTSEELEKLEGRKEVLKERKKNAVQNQEQLEEAIVQFQQKETVLKEELSKQEAVFETLQAEVKQLRAQVKEKQQALSLHNENVEEKIEQLKSDYFELLNSQASIRNELQLLDDQMSQSAVTLQRLADNNEKHLQERHDISARKAACETEFARIEQEIHSQVGAYRDMQTKYEQKKRQYEKNESALYQAYQYVQQARSKKDMLETMQGDFSGFYQGVKEVLKAKERLGGIRGAVLELISTEQKYETAIEIALGASAQHVVTDDEQSARKAIQYLKQNSFGRATFLPLSVIRDRQLQSRDAETAARHSSFLGVASELVTFDPAYRSVIQNLLGTVLITEDLKGANELAKLLGHRYRIVTLEGDVVNPGGSMTGGAVKKKNNSLLGRSRELEDVTKRLAEMEEKTALLEQEVKTLKHSIQDMEKKLADLRETGEGLRLKQQDVKGQLYELQVAEKNINTHLELYDQEKSALSESDEERKVRKRKLEEELSAVSEKMKQLEEDIDRLTKQKQTQSSTKESLSNELTELKIAAAKKEQACKGEEDNLARLKKELTETELALKEAKEDLSFLTSEMSSSTSGEEKLEEAAKHKLNDKTKTIELIALRRDQRIKLQHGLDTYERELKEMKRLYKQKTTLLKDEEVKLGRMEVELDNLLQYLREEYSLSFEGAKEKYQLETDPEEARKRVKLIKLAIEELGTVNLGSIDEFERVNERYKFLSEQKEDLTEAKNTLFQVIEEMDEEMTKRFNDTFVQIRSHFDQVFRSLFGGGRAELRLTDPNDLLHSGVEIIAQPPGKKLQNLNLLSGGERALTAIALLFSILKVRPVPFCVLDEVEAALDEANVFRFAQYLKKYSSDTQFIVITHRKGTMEEADVLYGVTMQESGVSKVISVKLEETKEFVQ
notes: SMC, Bacillus subtilis; monomeric size 135 kDa as printed; also called wild-type SMC; wild type SMC
For B4, the binding [6] was “no binding (condition: diluted samples)”.
